These are yes or no findings as the source states them, for the method shown. Binding seen in cells or lysates may run through a third protein. Some binding calls cover weakened binding; strength is not graded here. Sequences can lack the tags named with a protein.
Key:
[1] = molecular target: T1, S6K2:Myc fusion protein (Arabidopsis) (UniProt Q39030); test: co-IP; HA:Tap46 co-expressed with Myc-fused S6K proteins in N. benthamiana leaves by agroinfiltration; immunoprecipitation from leaf extracts with anti-Myc antibodies; co-immunoprecipitated HA:Tap46 detected by immunoblotting with anti-HA antibodies
T1 sequence: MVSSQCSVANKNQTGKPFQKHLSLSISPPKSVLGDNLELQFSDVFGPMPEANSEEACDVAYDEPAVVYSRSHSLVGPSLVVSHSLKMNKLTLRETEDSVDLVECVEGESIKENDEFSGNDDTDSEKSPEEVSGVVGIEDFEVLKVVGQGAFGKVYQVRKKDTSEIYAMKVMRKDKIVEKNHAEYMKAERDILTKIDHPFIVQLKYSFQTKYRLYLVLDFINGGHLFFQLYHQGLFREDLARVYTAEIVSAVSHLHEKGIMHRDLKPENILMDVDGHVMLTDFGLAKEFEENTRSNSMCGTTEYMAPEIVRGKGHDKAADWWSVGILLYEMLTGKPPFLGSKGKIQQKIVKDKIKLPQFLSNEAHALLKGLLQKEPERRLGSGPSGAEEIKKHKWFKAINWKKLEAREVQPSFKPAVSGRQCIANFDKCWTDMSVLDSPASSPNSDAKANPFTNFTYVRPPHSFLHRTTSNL

[2] = molecular target: T2, S6K1(A):Myc fusion protein (Arabidopsis) (UniProt P42818); test: as above
T2 sequence: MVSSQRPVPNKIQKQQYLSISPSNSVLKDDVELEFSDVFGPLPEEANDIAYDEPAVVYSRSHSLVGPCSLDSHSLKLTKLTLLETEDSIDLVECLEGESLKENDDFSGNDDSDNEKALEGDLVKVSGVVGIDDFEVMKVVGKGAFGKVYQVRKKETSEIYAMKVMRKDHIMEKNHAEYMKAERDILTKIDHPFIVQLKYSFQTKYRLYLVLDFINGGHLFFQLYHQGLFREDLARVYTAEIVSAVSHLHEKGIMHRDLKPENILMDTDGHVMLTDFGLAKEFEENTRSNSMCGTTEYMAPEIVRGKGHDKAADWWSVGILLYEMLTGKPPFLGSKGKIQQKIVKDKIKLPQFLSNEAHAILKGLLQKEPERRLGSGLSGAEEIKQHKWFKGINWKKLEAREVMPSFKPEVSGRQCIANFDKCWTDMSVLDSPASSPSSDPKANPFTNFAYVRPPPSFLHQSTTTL

[3] = molecular target: T3, S6K1(D):Myc fusion protein (Arabidopsis) (UniProt P42818); test: as above
T3 sequence: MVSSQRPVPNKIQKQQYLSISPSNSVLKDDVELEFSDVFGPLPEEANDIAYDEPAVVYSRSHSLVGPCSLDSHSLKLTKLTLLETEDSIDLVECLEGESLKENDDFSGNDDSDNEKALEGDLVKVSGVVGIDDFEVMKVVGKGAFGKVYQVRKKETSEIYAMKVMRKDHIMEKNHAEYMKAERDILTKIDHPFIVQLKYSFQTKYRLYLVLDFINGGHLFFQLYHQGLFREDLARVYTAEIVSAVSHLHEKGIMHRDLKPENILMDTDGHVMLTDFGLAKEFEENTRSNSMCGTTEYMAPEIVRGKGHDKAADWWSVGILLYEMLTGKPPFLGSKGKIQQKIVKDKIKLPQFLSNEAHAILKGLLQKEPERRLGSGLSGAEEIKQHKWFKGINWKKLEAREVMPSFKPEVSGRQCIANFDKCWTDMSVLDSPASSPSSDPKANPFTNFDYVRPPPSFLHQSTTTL

[4] = molecular target: T4, YFP^C:S6K2 fusion protein (Arabidopsis) (UniProt Q39030); test: split reporter; BiFC: YFP^N and YFP^C fusions co-expressed in N. benthamiana leaves by agroinfiltration; after 48 hours mesophyll protoplasts or epidermal cells observed by confocal laser scanning microscopy
T4 sequence: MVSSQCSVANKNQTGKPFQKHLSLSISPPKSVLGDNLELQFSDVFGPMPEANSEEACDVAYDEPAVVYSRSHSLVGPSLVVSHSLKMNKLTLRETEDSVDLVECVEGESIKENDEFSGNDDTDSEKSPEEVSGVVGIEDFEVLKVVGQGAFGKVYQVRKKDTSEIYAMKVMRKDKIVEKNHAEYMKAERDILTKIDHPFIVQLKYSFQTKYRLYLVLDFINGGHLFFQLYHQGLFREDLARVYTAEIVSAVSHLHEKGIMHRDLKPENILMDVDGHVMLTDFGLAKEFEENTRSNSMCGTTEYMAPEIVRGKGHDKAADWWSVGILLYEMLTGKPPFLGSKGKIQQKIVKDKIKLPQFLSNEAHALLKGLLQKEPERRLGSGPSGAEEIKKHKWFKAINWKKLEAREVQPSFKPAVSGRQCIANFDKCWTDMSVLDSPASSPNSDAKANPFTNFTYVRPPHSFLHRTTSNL

binding [1] | binding [2] | binding [3] | binding [4] | Binder
binds | binds | binds |  | HA:Tap46 fusion protein (protein, UniProt Q8LDQ4 1-405) MGGLAMEEMPLSVLFEQARKIHLAASESGVDQDVVKKGCEMFQKCEDMIGKLALFSSNETKEDISTNNLKYLLVPYYLAELTEKIIQEDRIQIVKASYAKLKEFFSFCEAMELVPDEELEASSRGGSGAPADRRALKIARFKRQKAAEAKLLEIKERKERRGRSTKASALSTPVESGEDDIPDDDSEEEREAWLSSINLAICKAIDLLEMLKREEEMLSAIKERQLKDGEGGFSRDALDDRTKKAETWHRDAAARIQYSKPAQPITCATFAQDVLEGRASVSQGHEHKNQPLIFGPASIVGGPLSTERERMIAQVFQPSHRMPTMCIEDAGLTEMNIMNDWQEQTKKAIEEATTSWYNDKPLRRKEEDEEDDDEDEEAVMKARAFDDWKDDNPRGAGNKKLTPCG
 |  |  | binds | YFP^N:Tap46 fusion protein (protein, UniProt Q8LDQ4 1-405) MGGLAMEEMPLSVLFEQARKIHLAASESGVDQDVVKKGCEMFQKCEDMIGKLALFSSNETKEDISTNNLKYLLVPYYLAELTEKIIQEDRIQIVKASYAKLKEFFSFCEAMELVPDEELEASSRGGSGAPADRRALKIARFKRQKAAEAKLLEIKERKERRGRSTKASALSTPVESGEDDIPDDDSEEEREAWLSSINLAICKAIDLLEMLKREEEMLSAIKERQLKDGEGGFSRDALDDRTKKAETWHRDAAARIQYSKPAQPITCATFAQDVLEGRASVSQGHEHKNQPLIFGPASIVGGPLSTERERMIAQVFQPSHRMPTMCIEDAGLTEMNIMNDWQEQTKKAIEEATTSWYNDKPLRRKEEDEEDDDEDEEAVMKARAFDDWKDDNPRGAGNKKLTPCG
